Some of the results follow.
Tests used:
Experiment in all cases: log2 fold change, soluble protein after heating vs DMSO (PISA); higher = thermal stabilisation; K562 lysate, 10 uM; active = over 0.2 and 3.5 SD of the protein, either way, in both replicates (recomputed)
nilotinib = compound: Cc1cn(-c2cc(NC(=O)c3ccc(C)c(Nc4nccc(-c5cccnc5)n4)c3)cc(C(F)(F)F)c2)cn1 [nilotinib]
Summary of the method: (§1)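 Following dounce homogenisation of K562 pellets in PBS pH 7.4 with 1 mM MgCl2, crude extract at 1 mg/mL protein was incubated for 30 min with 10 μM compound. Aliquots were then heated for 3 min over 48°C-58°C and pooled, NP-40 was added to 0.5% at 4°C, and soluble protein was recovered as the supernatant at 21,000xg for 90 min. Channel-sum-equalised TMTpro 16plex LC-MS/MS quantified this protein. Each value, from duplicates, is a log-two fold change in thermal stability relative to solvent controls.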

Amino acid sequences for entries named in this document (tags omitted). A change or cut given only in a name is not applied to a line headed by its entry.
UniProt O75182: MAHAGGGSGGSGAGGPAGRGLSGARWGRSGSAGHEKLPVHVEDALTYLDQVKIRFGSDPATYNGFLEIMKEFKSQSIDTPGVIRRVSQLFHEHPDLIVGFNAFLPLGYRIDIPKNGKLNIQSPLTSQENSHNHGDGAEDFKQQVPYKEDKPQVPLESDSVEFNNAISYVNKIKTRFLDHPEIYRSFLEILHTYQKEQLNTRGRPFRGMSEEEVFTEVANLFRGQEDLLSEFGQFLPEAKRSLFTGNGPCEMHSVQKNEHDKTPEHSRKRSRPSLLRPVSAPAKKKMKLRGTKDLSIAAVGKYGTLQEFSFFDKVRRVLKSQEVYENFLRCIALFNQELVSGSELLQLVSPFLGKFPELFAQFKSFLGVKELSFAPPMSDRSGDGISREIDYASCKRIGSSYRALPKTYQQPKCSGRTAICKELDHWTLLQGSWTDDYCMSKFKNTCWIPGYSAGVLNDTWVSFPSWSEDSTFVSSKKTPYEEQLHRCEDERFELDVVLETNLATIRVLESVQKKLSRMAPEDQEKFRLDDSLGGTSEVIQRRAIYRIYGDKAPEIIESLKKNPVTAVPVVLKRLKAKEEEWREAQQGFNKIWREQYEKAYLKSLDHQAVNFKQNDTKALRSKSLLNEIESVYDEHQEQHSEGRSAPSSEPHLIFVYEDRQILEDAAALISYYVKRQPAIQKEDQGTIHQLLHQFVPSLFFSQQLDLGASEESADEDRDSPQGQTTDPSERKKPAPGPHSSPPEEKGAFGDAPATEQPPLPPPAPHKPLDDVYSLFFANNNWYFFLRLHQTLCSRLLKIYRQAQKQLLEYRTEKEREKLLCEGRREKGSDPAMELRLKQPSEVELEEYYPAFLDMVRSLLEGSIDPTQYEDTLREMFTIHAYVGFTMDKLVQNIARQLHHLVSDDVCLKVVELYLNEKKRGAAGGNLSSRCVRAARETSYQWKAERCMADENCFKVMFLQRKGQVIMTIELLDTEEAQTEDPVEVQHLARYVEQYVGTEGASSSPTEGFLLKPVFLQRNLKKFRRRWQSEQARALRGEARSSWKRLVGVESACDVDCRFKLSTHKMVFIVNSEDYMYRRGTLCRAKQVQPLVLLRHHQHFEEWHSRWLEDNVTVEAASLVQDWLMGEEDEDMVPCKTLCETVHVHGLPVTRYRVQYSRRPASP
UniProt Q6P4A7: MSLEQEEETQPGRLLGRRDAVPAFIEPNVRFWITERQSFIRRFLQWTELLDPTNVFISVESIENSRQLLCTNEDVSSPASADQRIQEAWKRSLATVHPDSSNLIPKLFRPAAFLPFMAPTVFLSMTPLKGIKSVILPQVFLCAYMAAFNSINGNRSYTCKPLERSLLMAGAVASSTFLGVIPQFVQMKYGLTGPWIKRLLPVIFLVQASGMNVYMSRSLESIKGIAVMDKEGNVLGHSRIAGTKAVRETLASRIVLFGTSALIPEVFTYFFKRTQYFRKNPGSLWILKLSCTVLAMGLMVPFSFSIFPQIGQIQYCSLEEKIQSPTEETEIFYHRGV
UniProt Q9NP50: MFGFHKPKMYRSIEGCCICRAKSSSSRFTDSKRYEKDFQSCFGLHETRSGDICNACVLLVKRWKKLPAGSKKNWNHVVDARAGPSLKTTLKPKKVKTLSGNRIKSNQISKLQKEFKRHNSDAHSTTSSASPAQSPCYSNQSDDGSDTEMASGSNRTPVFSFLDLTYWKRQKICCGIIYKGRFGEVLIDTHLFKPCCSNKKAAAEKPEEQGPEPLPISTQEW
UniProt Q6PI26: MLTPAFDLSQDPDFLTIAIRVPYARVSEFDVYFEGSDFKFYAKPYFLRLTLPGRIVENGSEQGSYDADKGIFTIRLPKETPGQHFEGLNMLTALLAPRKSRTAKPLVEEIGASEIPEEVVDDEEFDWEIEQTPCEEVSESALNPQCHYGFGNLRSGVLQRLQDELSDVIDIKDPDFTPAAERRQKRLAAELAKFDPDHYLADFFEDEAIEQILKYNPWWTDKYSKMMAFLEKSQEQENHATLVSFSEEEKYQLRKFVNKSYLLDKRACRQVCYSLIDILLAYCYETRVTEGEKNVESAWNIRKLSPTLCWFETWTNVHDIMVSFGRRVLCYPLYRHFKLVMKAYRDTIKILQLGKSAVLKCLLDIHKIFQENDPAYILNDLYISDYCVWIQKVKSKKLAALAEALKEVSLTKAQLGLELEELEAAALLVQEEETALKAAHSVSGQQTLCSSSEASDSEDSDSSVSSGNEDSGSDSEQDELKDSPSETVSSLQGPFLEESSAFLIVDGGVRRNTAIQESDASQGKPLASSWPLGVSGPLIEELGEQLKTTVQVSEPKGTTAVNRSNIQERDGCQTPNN
UniProt Q8NEM2: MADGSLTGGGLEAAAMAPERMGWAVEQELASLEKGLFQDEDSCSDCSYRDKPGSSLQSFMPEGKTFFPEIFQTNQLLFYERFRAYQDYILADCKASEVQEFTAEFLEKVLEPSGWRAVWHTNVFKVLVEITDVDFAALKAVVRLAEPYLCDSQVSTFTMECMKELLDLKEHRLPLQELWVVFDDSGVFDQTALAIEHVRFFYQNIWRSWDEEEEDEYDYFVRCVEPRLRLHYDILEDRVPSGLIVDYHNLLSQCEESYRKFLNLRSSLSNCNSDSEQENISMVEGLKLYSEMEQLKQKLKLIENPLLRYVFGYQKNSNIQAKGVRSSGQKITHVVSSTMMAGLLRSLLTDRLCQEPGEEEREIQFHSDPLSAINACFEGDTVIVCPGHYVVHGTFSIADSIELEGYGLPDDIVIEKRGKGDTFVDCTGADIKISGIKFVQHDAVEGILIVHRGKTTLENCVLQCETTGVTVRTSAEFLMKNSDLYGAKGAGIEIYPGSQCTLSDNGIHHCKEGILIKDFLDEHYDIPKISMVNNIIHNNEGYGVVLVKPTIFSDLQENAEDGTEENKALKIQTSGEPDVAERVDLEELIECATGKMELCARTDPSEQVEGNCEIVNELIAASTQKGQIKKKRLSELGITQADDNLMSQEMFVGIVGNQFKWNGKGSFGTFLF
UniProt P36952: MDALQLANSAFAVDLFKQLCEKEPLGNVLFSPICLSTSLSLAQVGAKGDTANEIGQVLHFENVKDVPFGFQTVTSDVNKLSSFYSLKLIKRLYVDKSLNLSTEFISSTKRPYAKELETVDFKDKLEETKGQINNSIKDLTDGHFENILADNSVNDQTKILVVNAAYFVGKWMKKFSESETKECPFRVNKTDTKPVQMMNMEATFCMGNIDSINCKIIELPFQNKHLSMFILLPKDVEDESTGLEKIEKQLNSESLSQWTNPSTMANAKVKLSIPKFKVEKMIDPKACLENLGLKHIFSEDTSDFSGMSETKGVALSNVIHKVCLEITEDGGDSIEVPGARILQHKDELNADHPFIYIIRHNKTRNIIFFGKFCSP
UniProt Q9H173: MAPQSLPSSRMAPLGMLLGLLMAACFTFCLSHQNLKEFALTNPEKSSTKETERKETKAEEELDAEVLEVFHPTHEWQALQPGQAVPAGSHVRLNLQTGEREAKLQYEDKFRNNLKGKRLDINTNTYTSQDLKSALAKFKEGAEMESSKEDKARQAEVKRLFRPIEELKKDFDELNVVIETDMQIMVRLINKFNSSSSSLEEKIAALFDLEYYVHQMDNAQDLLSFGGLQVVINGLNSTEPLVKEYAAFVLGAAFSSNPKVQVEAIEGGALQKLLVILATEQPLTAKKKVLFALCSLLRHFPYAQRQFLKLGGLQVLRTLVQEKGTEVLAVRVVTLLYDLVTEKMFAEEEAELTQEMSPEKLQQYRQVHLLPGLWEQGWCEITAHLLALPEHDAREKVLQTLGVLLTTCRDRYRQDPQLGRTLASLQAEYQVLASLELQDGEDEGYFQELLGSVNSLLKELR
UniProt Q8NDZ2: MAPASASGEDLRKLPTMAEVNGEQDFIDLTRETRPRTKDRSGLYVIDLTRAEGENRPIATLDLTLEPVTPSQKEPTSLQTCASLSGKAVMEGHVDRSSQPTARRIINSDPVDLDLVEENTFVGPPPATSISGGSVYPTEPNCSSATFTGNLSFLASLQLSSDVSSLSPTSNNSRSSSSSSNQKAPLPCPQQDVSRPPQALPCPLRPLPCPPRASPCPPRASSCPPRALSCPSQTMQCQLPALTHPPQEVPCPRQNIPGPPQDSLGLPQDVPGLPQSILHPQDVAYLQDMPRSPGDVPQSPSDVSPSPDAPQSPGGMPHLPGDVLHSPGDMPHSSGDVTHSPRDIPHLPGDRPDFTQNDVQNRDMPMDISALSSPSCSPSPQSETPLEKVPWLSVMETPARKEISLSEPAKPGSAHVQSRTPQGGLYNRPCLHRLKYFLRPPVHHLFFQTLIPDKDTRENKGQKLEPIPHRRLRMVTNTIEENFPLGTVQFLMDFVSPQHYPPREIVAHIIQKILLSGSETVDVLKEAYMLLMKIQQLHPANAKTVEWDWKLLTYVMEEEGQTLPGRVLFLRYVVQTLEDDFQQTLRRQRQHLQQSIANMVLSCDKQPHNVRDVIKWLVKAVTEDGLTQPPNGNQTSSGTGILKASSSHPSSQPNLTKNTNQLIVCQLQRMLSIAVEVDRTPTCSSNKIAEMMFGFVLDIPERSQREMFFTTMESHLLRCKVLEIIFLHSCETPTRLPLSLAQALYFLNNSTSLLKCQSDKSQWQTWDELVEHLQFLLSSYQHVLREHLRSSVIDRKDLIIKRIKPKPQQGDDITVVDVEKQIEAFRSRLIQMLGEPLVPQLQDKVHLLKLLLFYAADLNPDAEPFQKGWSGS
UniProt Q6NT16: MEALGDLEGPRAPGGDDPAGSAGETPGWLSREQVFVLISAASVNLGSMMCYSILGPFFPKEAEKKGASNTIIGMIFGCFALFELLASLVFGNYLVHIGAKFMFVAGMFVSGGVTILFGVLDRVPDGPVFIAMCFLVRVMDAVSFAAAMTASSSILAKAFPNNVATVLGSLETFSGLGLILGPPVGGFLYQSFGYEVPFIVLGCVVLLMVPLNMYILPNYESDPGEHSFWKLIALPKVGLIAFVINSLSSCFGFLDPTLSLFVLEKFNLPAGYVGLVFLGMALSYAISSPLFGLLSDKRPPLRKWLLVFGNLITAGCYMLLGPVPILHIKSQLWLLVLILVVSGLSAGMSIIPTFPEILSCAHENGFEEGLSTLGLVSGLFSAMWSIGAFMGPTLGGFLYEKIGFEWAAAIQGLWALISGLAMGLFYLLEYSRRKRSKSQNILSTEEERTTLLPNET
UniProt Q9H299: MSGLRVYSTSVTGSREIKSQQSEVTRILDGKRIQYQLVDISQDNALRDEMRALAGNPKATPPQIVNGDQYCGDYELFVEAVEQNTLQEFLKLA
UniProt Q8TBK2: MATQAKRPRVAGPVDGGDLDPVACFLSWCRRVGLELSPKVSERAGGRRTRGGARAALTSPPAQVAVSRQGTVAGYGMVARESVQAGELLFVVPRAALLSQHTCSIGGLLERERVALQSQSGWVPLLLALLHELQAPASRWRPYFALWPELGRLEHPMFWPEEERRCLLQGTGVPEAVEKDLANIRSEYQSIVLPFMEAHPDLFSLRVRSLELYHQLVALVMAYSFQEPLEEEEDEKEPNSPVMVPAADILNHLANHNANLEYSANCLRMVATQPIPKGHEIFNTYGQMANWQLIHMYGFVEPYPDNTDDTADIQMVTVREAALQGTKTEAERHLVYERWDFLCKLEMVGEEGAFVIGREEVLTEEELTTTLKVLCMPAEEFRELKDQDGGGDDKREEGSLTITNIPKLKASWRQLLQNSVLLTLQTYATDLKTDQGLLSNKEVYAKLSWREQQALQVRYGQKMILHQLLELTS
UniProt P55822: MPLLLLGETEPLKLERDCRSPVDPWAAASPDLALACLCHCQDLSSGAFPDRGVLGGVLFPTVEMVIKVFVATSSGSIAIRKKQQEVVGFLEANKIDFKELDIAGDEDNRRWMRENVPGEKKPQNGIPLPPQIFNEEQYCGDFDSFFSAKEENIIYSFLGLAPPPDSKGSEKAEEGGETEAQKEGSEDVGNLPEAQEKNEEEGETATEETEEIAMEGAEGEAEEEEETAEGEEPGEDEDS
UniProt O60779: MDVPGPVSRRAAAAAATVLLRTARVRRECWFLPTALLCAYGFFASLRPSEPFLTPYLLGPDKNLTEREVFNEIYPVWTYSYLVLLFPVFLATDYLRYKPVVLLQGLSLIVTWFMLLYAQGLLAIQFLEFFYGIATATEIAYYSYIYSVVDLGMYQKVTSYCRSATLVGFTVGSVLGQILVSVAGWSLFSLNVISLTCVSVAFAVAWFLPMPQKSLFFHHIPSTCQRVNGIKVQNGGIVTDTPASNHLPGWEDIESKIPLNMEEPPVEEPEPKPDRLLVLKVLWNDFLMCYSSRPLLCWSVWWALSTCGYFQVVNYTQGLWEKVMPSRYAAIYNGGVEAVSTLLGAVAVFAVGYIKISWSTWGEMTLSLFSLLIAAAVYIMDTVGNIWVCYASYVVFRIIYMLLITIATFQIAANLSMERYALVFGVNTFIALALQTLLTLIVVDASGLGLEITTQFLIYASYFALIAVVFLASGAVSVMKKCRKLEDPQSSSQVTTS

[1] = compound: Cc1nc(Nc2n[nH]c3c2CN(C(=O)N[C@H](CN(C)C)c2ccccc2)C3(C)C)c2sccc2n1
Summary of the method: as §1

dasatinib = compound: Cc1nc(Nc2ncc(C(=O)Nc3c(C)cccc3Cl)s2)cc(N2CCN(CCO)CC2)n1 [dasatinib]
Summary of the method: as §1

[2] = compound: Cc1ncc(-c2ccnc(Nc3ccc(S(C)(=O)=O)cc3)n2)n1C(C)C
Summary of the method: as §1

[3] = compound: Cn1cc(-c2ccc3c(c2)CCN3C(=O)Cc2cccc(C(F)(F)F)c2)c2c(N)ncnc21
Summary of the method: as §1

tipifarnib = compound: Cn1cncc1[C@@](N)(c1ccc(Cl)cc1)c1ccc2c(c1)c(-c1cccc(Cl)c1)cc(=O)n2C [tipifarnib]
Summary of the method: as §1

[4] = compound: NC1(c2ccc(-c3nc4ccn5c(=O)[nH]nc5c4cc3-c3ccccc3)cc2)CCC1
Summary of the method: as §1

vorinostat = compound: O=C(CCCCCCC(=O)Nc1ccccc1)NO [vorinostat]
Summary of the method: as §1

silmitasertib = compound: O=C(O)c1ccc2c(c1)nc(Nc1cccc(Cl)c1)c1ccncc12 [silmitasertib]
Summary of the method: as §1

entospletinib = compound: c1cn2cc(-c3ccc4cn[nH]c4c3)nc(Nc3ccc(N4CCOCC4)cc3)c2n1 [entospletinib]
Summary of the method: as §1

quisinostat = compound: Cn1cc(CNCC2CCN(c3ncc(C(=O)NO)cn3)CC2)c2ccccc21 [quisinostat]
Summary of the method: as §1

[5] = compound: NC(=O)Nc1cc(-c2cccc(F)c2)sc1C(=O)N[C@H]1CCCNC1
Summary of the method: as §1

[6] = compound: NCC(=O)Nc1ccc(-n2nc(C(F)(F)F)cc2-c2ccc3c(ccc4ccccc43)c2)cc1
Summary of the method: as §1

[7] = compound: O=C1NC(=O)C(c2cnc3ccccn23)=C1c1cn2c3c(cc(F)cc13)CN(C(=O)N1CCCCC1)CC2
Summary of the method: as §1

[8] = compound: NC(=O)c1cnc(N[C@@H]2CCCC[C@@H]2N)nc1Nc1cccc(-n2nccn2)c1
Summary of the method: as §1

Target	log2 fold change (nilotinib)	log2 fold change [1]	log2 fold change (dasatinib)	log2 fold change [2]	log2 fold change [3]	log2 fold change (tipifarnib)	log2 fold change [4]	log2 fold change (vorinostat)	log2 fold change (silmitasertib)	log2 fold change (entospletinib)	log2 fold change (quisinostat)	log2 fold change [5]	log2 fold change [6]	log2 fold change [7]	log2 fold change [8]
SERAC1 (UniProt Q96JX3)	inactive: 0.085	inactive: -0.133	inactive: -0.152	inactive: -0.029	inactive: 0.052	inactive: 0.033	inactive: -0.023	inactive: 0.236	inactive: 0.155	inactive: -0.001					
SIN3B (UniProt O75182)	active: 1.42	inactive: -0.15		inactive: 0.839		inactive: 0.086				inactive: -0.089	inactive: -0.079	inactive: 0.077	inactive: 0.195	inactive: 0.559	
SIRT5 (UniProt Q9NXA8)	inactive: 0.069	inactive: -0.045	inactive: 0.019	inactive: 0.01	inactive: -0.044	inactive: 0.059	inactive: 0.012	inactive: -0.031	inactive: 0.124	inactive: 0.045	inactive: -0.006	inactive: 0.014	inactive: -0.012	inactive: -0.01	inactive: 0.003
SGPL1 (UniProt O95470)	inactive: 0.06	inactive: -0.017	inactive: -0.039	inactive: 0.051	inactive: -0.003	inactive: 0.108	inactive: -0.003	inactive: 0.032	inactive: 0.014	inactive: 0.037	inactive: 0.052	inactive: 0.008	inactive: 0.015	inactive: 0.061	inactive: -0.022
SIAH1 isoform 2 (UniProt Q8IUQ4)	inactive: 0.058	inactive: 0.115		inactive: 0.02		inactive: -0.178	inactive: 0.009	inactive: -0.032	inactive: -0.042		inactive: -0.016	inactive: 0.01		inactive: 0.065	inactive: -0.037
SFXN4 isoform 3 (UniProt Q6P4A7)	inactive: -0.228	inactive: 0.005		inactive: -0.091		inactive: 0.036	inactive: 0.009	inactive: 0.084	inactive: -0.171	inactive: -0.04	inactive: -0.219	inactive: 0.102	inactive: 0.1	inactive: -0.003	
SINHCAF (UniProt Q9NP50)	inactive: -0.016	inactive: 0	inactive: -0.161	inactive: -0.121	inactive: 0.556	inactive: -0.089	inactive: 0.209	inactive: -0.107	inactive: -0.172		inactive: -0.044	inactive: 0.122	inactive: -0.557	inactive: -0.026	
SHQ1 (UniProt Q6PI26)	inactive: -0.07	inactive: -0.01	inactive: -0.339	inactive: 0.002	inactive: 0.108	inactive: -0.104	inactive: 0.106	inactive: 0.124	inactive: -0.048		inactive: -0.067	inactive: 0.012		inactive: -0.038	
SH2B1 (UniProt Q9NRF2)	inactive: 0.041	inactive: -0.108	inactive: 0.05	inactive: 0.033	inactive: -0.211	inactive: -0.048	inactive: 0.144	inactive: -0.146	inactive: 0.021		inactive: 0.033	inactive: -0.056		inactive: -0.031	inactive: -0.113
SHOC2 (UniProt Q9UQ13)	inactive: -0.015	inactive: -0.01	inactive: -0.014	inactive: -0.017	inactive: 0.021	inactive: 0.029	inactive: -0.022	inactive: -0.03	inactive: 0.029	inactive: 0.003	inactive: 0.023	inactive: 0.012	inactive: 0.038	inactive: 0.02	inactive: 0.004
SIRT1 (UniProt Q96EB6)	inactive: 0.016	inactive: -0.004	inactive: -0.004	inactive: 0.011	inactive: -0.014	inactive: 0.013	inactive: -0.012	inactive: -0.04	inactive: 0.049	inactive: -0.019	inactive: 0.019	inactive: 0.014	inactive: -0.026	inactive: 0.015	inactive: 0.016
SHCBP1 (UniProt Q8NEM2)	inactive: -0.051	inactive: -0.024	inactive: -0.071	inactive: -0.043	inactive: 0.026	inactive: -0.035	inactive: -0.016	active: -0.37	inactive: 0.04	inactive: -0.013	inactive: -0.019	inactive: -0.009	inactive: 0.02	inactive: -0.009	inactive: -0.019
SERPINB5 (UniProt P36952)	inactive: 0.029	inactive: -0.066	inactive: 0.162	inactive: -0.423	inactive: -0.119	inactive: -0.219	inactive: 0.219	inactive: 0.005	inactive: -0.38		inactive: 0.016	inactive: -0.232		inactive: 0.316	inactive: 0.063
SIL1 (UniProt Q9H173)	inactive: -0.046	inactive: -0.009	inactive: -0.012	inactive: -0.043	inactive: 0.016	inactive: -0.003	inactive: -0.083	inactive: 0.113	inactive: -0.104	inactive: -0.015	inactive: -0.049	inactive: 0.025	inactive: -0.006	inactive: 0.019	inactive: -0.013
SIMC1 (UniProt Q8NDZ2)	inactive: -0.065	inactive: 0.008		inactive: -0.009		inactive: -0.054				inactive: 0.417	inactive: -0.06	inactive: -0.017	inactive: -0.141	inactive: 0.242	
SF3B3 (UniProt Q15393)	inactive: 0.003	inactive: -0.009	inactive: 0	inactive: -0.005	inactive: 0.022	inactive: 0.001	inactive: -0.01	inactive: 0.069	inactive: 0.005	inactive: 0.011	inactive: -0.031	inactive: -0.002	inactive: 0.001	inactive: 0.002	inactive: 0.012
SLC18B1 (UniProt Q6NT16)	inactive: -0.026	inactive: 0.062		inactive: -0.02		inactive: 0.004	inactive: -0.016	inactive: 0.064	inactive: 0.026		inactive: 0.03	inactive: 0.056	inactive: 0.036	inactive: -0.095	inactive: 0.012
SH3BGRL3 (UniProt Q9H299)	inactive: 0.02	inactive: -0.013	inactive: 0.017	inactive: 0.023	inactive: 0.002	inactive: 0.008	inactive: 0.018	inactive: 0.105	inactive: 0.003	inactive: -0.013	inactive: -0.02	inactive: -0.016	inactive: -0.096	inactive: 0.001	inactive: -0.054
SGSM3 isoform 2 (UniProt Q96HU1)	inactive: -0.038	inactive: 0.113		inactive: -0.026		inactive: 0.015	inactive: 0.065	inactive: -0.216	inactive: -0.027		inactive: 0.045	inactive: 0.013		inactive: 0.022	inactive: -0.056
SETD6 (UniProt Q8TBK2)	inactive: -0.074	inactive: -0.092	inactive: 0.251	inactive: -0.009	inactive: 0.047	inactive: 0.004	inactive: -0.113	inactive: 0.189	inactive: 0.036						
SH3BGR (UniProt P55822)	inactive: 0.002	inactive: 0.007	inactive: 0.081	inactive: -0.013	inactive: -0.155	inactive: 0.034	inactive: -0.009	inactive: 0.09	inactive: -0.028	inactive: -0.008	inactive: -0.027	inactive: 0.026	inactive: -0.022	inactive: -0.005	inactive: -0.014
SLC19A2 (UniProt O60779)	inactive: 0.131	inactive: -0.034	inactive: -0.054	inactive: -0.236	inactive: -0.083	inactive: -0.087				inactive: -0.01					inactive: -0.061

Individual results from above:
Entry of SERAC1 (UniProt Q96JX3) under log2 fold change [4]: inactive: -0.023
Entry of SIN3B (UniProt O75182) under log2 fold change [6]: inactive: 0.195

From the supplement of paper PMC10849652
